Results: doi:10.1101/2021.09.20.461083
No constants are given. Whether binding was seen depends on the method and setting. In cells and extracts the contact can be indirect. Here binding means that the protein was enriched with, or labelled near, the bait; the list need not be complete.

Protein sequences, listed by entry. Tags and fused reporters are not part of them.
UniProt Q13342: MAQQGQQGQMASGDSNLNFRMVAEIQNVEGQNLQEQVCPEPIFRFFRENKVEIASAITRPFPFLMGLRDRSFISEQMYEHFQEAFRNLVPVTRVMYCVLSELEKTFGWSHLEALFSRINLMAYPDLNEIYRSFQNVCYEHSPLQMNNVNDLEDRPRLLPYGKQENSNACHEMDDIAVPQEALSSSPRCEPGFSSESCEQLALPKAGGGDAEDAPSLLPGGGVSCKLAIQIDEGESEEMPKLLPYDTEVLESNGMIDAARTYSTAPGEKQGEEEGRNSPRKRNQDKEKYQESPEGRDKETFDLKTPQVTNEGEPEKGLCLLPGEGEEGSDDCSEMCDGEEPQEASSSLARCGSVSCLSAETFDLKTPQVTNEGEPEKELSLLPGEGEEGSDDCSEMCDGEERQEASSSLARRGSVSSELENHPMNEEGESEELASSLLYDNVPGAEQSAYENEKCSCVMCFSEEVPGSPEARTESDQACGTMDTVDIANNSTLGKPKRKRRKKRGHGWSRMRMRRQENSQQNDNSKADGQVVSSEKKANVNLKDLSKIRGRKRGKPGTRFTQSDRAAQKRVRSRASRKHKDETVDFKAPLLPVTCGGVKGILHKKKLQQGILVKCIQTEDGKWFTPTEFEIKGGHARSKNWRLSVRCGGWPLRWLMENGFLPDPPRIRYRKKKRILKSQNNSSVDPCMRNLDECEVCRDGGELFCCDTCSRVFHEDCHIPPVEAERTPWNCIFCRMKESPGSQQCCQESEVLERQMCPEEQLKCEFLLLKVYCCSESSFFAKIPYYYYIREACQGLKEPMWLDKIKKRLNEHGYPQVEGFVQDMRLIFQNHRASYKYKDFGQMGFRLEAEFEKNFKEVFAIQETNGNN
UniProt Q9Y5B9: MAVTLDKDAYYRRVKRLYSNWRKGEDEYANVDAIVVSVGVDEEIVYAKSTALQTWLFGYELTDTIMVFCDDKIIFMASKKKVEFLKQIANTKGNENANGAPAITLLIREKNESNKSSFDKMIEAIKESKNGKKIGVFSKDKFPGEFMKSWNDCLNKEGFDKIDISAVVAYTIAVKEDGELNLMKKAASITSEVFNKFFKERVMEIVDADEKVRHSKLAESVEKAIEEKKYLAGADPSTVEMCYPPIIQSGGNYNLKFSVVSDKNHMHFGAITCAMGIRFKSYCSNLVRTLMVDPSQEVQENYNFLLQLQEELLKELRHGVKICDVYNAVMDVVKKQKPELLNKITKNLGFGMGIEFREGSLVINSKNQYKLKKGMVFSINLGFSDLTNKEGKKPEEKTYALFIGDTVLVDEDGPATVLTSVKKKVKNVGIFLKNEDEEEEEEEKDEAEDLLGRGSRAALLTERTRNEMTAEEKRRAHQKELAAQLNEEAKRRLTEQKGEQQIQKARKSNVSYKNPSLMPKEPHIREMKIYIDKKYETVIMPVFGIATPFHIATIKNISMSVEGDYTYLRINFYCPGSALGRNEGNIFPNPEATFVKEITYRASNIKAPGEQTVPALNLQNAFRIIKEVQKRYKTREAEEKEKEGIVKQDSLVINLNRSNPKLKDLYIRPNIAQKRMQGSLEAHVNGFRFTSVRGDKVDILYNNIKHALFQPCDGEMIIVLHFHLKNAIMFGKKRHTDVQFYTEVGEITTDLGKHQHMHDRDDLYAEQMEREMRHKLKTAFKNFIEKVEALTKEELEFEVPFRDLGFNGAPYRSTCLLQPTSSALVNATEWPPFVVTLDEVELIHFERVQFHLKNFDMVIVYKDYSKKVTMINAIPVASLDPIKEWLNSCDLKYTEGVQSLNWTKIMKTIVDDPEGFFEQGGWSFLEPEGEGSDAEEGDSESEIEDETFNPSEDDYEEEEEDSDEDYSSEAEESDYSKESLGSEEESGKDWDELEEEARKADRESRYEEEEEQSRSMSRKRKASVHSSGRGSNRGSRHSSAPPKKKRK
UniProt P78527: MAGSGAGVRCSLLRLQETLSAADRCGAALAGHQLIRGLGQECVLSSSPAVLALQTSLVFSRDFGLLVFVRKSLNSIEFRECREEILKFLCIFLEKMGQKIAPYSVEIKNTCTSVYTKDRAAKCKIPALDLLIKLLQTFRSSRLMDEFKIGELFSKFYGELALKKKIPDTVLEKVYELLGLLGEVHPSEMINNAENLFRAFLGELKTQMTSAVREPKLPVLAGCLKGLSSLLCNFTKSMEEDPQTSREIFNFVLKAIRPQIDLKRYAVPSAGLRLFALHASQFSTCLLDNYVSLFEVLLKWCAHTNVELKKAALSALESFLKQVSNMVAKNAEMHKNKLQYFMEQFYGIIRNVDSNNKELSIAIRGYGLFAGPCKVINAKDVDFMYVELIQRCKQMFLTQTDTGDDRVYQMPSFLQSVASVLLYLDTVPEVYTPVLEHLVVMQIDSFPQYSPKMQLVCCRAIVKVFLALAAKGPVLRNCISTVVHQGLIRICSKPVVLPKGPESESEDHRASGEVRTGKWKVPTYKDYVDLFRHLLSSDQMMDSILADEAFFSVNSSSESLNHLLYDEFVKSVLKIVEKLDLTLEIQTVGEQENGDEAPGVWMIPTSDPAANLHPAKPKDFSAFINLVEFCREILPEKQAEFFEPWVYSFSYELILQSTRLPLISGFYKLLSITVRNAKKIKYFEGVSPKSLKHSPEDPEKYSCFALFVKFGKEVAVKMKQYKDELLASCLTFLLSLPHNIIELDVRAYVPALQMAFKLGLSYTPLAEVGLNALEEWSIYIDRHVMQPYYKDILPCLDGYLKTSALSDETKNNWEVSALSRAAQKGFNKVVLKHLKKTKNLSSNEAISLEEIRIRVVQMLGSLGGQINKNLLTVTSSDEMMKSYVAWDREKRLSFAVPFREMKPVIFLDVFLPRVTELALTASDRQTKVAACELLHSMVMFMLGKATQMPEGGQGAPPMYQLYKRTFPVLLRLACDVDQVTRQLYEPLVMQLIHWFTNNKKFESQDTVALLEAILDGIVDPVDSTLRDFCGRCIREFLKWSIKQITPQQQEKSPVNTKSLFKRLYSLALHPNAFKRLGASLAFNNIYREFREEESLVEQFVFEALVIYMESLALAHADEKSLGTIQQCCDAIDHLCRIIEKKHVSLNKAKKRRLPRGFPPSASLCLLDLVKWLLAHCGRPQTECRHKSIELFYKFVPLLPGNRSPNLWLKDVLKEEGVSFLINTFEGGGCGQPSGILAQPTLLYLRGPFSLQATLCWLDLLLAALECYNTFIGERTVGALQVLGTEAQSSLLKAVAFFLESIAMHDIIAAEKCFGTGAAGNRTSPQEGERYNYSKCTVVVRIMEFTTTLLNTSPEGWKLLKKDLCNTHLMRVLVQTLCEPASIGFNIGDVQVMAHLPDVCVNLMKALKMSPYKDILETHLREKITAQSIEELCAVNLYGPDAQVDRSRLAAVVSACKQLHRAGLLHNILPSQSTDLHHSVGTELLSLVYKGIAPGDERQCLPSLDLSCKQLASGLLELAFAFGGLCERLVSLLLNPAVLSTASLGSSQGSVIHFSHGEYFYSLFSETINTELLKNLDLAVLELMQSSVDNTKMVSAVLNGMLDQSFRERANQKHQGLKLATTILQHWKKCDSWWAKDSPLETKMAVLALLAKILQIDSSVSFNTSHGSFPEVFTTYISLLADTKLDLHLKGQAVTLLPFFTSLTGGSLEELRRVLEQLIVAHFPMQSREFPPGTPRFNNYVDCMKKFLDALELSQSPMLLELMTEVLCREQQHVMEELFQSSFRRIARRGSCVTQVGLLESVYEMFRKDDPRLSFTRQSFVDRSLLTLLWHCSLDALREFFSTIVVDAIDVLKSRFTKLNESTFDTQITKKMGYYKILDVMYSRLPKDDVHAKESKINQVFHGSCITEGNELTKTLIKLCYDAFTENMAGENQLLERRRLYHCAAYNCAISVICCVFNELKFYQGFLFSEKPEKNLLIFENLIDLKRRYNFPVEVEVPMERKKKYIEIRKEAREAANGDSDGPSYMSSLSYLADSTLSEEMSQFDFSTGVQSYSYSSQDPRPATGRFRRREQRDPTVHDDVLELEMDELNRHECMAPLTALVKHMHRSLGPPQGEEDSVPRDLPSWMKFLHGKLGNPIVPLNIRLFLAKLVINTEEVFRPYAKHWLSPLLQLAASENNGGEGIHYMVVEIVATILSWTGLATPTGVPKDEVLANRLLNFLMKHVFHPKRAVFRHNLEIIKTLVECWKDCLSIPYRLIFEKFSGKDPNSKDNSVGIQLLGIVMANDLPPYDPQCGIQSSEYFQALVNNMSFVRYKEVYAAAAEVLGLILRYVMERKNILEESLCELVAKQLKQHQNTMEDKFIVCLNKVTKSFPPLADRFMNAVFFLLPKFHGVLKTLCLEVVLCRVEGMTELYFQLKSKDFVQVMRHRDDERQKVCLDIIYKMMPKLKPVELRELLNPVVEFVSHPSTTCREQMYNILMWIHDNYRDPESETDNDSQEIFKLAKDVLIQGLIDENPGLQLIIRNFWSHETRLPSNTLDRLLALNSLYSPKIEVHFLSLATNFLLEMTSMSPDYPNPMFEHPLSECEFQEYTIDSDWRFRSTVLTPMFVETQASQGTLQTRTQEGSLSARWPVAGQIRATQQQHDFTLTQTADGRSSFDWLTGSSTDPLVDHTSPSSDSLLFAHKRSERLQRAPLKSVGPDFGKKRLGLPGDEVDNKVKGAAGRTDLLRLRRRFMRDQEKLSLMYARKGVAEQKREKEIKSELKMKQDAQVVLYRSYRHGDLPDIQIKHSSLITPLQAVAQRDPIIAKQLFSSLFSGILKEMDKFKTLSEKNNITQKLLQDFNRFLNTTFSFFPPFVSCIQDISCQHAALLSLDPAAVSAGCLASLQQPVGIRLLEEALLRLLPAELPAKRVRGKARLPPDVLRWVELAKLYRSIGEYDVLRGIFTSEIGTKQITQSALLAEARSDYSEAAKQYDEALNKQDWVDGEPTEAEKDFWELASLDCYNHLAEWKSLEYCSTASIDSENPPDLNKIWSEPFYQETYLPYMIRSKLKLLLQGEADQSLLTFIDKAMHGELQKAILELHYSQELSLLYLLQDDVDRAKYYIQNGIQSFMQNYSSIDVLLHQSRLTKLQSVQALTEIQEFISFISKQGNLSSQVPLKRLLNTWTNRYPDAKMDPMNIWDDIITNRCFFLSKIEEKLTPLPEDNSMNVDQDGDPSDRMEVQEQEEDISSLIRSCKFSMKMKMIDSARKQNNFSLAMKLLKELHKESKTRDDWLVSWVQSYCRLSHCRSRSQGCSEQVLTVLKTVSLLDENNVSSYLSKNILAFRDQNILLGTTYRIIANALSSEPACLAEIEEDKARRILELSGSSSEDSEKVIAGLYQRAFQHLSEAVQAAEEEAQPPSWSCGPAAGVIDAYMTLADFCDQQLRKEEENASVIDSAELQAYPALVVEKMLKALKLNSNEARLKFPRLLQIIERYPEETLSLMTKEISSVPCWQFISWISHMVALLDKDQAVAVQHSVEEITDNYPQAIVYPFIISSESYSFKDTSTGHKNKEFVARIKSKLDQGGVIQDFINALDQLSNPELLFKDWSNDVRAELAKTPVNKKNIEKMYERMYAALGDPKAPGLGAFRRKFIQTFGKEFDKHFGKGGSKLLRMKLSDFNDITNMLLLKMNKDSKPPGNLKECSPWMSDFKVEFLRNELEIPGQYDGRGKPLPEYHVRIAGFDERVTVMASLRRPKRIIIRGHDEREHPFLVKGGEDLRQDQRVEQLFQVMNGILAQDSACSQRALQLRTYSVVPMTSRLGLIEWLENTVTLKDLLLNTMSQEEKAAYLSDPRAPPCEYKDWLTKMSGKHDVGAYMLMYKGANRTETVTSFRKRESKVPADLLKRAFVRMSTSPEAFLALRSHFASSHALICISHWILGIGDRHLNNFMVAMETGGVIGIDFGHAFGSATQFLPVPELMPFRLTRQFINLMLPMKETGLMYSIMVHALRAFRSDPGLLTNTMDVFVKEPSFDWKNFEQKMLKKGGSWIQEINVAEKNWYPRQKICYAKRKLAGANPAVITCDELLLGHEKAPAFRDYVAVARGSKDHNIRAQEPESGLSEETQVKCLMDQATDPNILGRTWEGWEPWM

Key:
[1] = molecular target: FLAG-tagged human SP140 (Speckled Protein 140) (human) (UniProt Q13342); assay: affinity purification with mass spectrometry
[2] = molecular target: endogenous SP140 (wild-type) (human (endogenous in THP1 and LBL)) (UniProt Q13342); assay: affinity purification with mass spectrometry

Row | Substance | binding [1] | binding [2]
1 | FACT complex subunit SSRP1 (SSRP1) (from UniProt Q08945 1-709) | binds | binds
2 | Facilitates chromatin transcription (FACT) complex subunit SPT16 (SUPT16H) (from UniProt Q9Y5B9 1-1047) | binds | binds
3 | SWI/SNF-related matrix-associated actin-dependent regulator of chromatin subfamily A member 5 (SMARCA5) (from UniProt O60264 1-1052) (enzyme) | binds | 
4 | Topoisomerase I (TOP1) (from UniProt P11387 1-765) (enzyme) | binds | binds

Next, values leading:

Row | binding [1] | binding [2] | Substance
5 | binds | binds | DNA-dependent protein kinase (DNA-PK) (from UniProt P78527 1-4128) (enzyme)
6 | binds | binds | Topoisomerase II beta (TOP2B) (from UniProt Q02880 1-1626) (enzyme)
